Measured values published in patent publication US20110060000A1, “ACRIDINE ANALOGS IN THE TREATMENT OF GLIOMAS” (priority 2009, published 2011).
Some of these results come from one statement about several compounds together.

How the values were obtained:
U87-MG cells = test: Cell viability / gliotoxicity in U87-MG; assay type: cell-based; details: cytoplasmic exosaminidase
Description: Cells were treated for 48 hours accordingly to axis labels. At the end of the incubation time cells were prepared for the assay according to the manufacturer instructions. Luminescence values were then converted to % of survival.
Cells were treated for 48 h with the indicated concentrations of the agents. Astrocytes death was limited to 30% or lower. Suprisingly, C6 death was 3 folds higher than in astrocytes at 24 h and increased at 5 folds at 48 h. Data in U78-MG are similar to the C6 data although the effect was slightly lower but always at least 2 to 4 folds the effect seen in astrocytes.
In order to verify how the hypersensitivity of this signaling pathway in glioma cells affects the survival of the cells, viability assessments were performed using at least three unrelated biochemical tests. Initially, a commercially available kit (Cell Titer Glow) was used in the high throughput screening center for cytotoxicity screening. […] Since, THAP inhibits SERCA, an ATPase, and it can affect ATP levels directly the effect of THAP and TUN on these 3 cells types was also assessed using a commercially available kit that assesses metatetrazolium salts conversion (XTT). […] Finally, viability of U87-MG was also assessed using a system measuring the activity of a house keeping cytosolic enzyme involved in glucose metabolism. […]

primary astrocytes = test: Cell viability in primary astrocytes; assay type: cell-based, rat; details: treated up to 48 h
GRP78 promoter = test: GRP78-luc reporter assay in stably transfected U87-MG clone A5; assay type: cell-based, human
Description: The promoter region contains the sequence of the GRP78 promoter from −139 to +7. In this part of the promoter there are three ER stress responsive elements and the TATA box to which is linked in frame the firefly luciferase sequence.
Compounds were plated in half area 96 well plates at the final concentration of 2 μM in 5 μl of media. Cells were added in 45 μl afterwards at the density of 5000/well. Plates were read after 16 h in an Envision high efficiency plate reader. Results are represented as a plate layout in which different shadings indicate the different rows and the number indicate the different lines. As a standard negative and positive controls were located in the outer columns.
A construct coding a large part of the human GRP78 promoter, attached to the reporter gene firefly luciferase was used (see FIG. 16 for a schematic) (Yoshida et al., 1998).
The promoter region contains the sequence of the GRP78 promoter from −139 to +7. […] Although, in transient transfection only a small part of the cell population expresses the transduced gene, a significant induction by THAP and TUN was detected over 24 hours. […] The sensitivity of these cells to the antibiotic has previously been assessed. […] Two pools called P2 and P5 were selected and luciferase expression was assessed. […] Next, the effect of the incubation time on luciferase induction was assessed. […]

Compound: C/C=C(/C)C(=O)O[C@H]1C(C)=C2[C@H]([C@@H]1OC(=O)CCCCCCC)[C@@](C)(OC(C)=O)C[C@H](OC(=O)CCC)[C@@]1(O)[C@H]2OC(=O)[C@@]1(C)O [THAP, thapsigargin]
- U87-MG death relative to the effect seen in astrocytes (U87-MG cells): 2 to 4 folds
- astrocytes death (cytoplasmic exosaminidase) (primary astrocytes): ≤ 30%

Compound: tunicamycin
- induction of luciferase expression (GRP78 promoter; clone A5, low THAP and TUN concentrations, 24 h incubation): 6-7 fold
- induction of luciferase (GRP78 promoter; inverted quadrant Z plate, half area 96 well plates, manual mode): 6-7 fold
- U87-MG death relative to the effect seen in astrocytes (U87-MG cells): 2 to 4 folds
- astrocytes death (cytoplasmic exosaminidase) (primary astrocytes): ≤ 30%
